Patent US6255273A, “Hydrofluoropolyether-based azeotropic or near azeotropic compositions” (Ausimont S.p.A., priority 1998, dated 2001)

Experiment: environmental characteristics: ODP, GWP, VOC, lifetime
Conditions: for ODP: CFC 11 = 1

| SMILES | lifetime [years] | ODP |
| --- | --- | --- |
| FC(F)OC(F)(F)OC(F)F [HFPE1, difluoromethoxy-bis(difluoromethyl ether)] | < 10 | 0 |
| FC(F)OC(F)(F)C(F)(F)OC(F)F [HFPE2, 1-difluoromethoxy-1,1,2,2-tetrafluoroethyl difluoromethyl ether] | < 10 | 0 |
